Assay in all cases: co-IP
The target in one test is T1, GFP-ARS2 (UniProt Q9BXP5).
T1 sequence: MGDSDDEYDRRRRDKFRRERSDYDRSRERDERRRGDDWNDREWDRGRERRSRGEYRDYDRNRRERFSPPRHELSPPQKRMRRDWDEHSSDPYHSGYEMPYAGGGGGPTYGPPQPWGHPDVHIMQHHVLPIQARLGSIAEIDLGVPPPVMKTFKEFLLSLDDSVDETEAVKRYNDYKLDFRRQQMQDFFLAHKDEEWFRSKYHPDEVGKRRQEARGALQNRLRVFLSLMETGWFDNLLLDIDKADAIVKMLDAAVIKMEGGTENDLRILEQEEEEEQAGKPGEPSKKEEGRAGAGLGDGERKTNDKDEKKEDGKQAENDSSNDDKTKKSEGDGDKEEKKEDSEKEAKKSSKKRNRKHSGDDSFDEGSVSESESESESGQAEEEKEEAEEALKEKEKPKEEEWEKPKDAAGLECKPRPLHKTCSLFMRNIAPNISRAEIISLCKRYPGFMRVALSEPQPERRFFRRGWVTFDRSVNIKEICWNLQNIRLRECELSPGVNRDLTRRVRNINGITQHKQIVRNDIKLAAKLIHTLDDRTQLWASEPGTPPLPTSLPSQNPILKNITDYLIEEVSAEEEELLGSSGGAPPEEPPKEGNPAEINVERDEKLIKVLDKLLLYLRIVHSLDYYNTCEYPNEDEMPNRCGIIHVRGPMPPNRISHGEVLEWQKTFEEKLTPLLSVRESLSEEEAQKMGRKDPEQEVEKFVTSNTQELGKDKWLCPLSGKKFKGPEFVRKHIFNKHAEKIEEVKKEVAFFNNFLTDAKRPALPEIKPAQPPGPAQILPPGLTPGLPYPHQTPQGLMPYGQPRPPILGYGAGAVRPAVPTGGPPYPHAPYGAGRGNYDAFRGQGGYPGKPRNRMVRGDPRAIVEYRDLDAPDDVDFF

Test [1] deals with T2, MYC-tagged ZC3H18^WT (human), Q86VM9.
T2 chain: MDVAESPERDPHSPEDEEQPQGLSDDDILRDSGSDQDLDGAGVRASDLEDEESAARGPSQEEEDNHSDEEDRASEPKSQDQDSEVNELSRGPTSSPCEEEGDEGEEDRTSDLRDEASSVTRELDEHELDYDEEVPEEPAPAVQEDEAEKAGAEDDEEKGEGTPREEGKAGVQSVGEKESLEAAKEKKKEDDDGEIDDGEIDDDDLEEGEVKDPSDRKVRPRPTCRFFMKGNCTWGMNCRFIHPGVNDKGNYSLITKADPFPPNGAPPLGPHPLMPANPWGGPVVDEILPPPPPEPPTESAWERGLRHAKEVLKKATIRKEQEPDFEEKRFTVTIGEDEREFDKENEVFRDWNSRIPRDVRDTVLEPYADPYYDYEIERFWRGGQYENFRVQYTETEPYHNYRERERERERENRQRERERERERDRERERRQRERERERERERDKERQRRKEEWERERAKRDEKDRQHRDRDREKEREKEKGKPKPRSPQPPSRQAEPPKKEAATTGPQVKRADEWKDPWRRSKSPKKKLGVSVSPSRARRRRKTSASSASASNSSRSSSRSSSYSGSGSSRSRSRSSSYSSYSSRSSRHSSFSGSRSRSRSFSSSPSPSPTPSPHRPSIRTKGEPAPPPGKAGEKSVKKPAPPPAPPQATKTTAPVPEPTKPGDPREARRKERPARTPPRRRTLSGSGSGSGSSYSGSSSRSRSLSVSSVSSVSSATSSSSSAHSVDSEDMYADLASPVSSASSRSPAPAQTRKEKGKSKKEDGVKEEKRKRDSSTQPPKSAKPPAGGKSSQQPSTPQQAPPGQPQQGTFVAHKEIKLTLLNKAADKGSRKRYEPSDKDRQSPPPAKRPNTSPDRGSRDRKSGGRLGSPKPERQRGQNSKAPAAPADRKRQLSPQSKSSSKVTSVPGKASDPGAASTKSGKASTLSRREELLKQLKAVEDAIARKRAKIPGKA
The settings on record: remark: other sources report otherwise.

The target of test [2] is T3, MYC-tagged ZC3H18^WT (human) (UniProt Q86VM9).
T3 sequence: T2 chain

The target of test [3] is T4, MYC-tagged ZFC3H1 N-terminal variant Z1^1-209(WT) (human) (UniProt O60293).
T4 sequence: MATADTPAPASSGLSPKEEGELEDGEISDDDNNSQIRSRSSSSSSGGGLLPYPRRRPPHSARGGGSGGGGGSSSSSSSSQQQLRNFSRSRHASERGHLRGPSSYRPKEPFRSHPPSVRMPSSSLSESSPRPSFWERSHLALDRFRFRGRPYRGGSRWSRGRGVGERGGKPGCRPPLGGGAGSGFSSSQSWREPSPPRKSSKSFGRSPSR

Results are given in words; binding and its absence hold for the method and conditions named. Binding seen in cells or lysates may run through a third protein. Some entries that bind do so weakly or less than the wild type. Tags and fused reporters may be left off the sequences shown.

Take “ZFC3H1 (endogenous) (from UniProt O60293 1-1989)”: the binding entry with GFP-ARS2 is on record as “binds”.

B1: NCBP2 (endogenous), P52298 1-156 (protein)
chain: MSGGLLKALRSDSYVELSQYRDQHFRGDNEEQEKLLKKSCTLYVGNLSFYTTEEQIYELFSKSGDIKKIIMGLDKMKKTACGFCFVEYYSRADAENAMRYINGTRLDDRIIRTDWDAGFKEGRQYGRGRSGGQVRDEYRQDYDAGRGGYGKLAQNQ
In the case of B1, in test [1], the binding entry is “binds”.

B2: ZCCHC8 (endogenous) (protein, UniProt Q6NZY4 1-707)
chain: MAAEVYFGDLELFEPFDHPEESIPKPVHTRFKDDDGDEEDENGVGDAELRERLRQCEETIEQLRAENQELKRKLNILTRPSGILVNDTKLDGPILQILFMNNAISKQYHQEIEEFVSNLVKRFEEQQKNDVEKTSFNLLPQPSSIVLEEDHKVEESCAIKNNKEAFSVVGSVLYFTNFCLDKLGQPLLNENPQLSEGWEIPKYHQVFSHIVSLEGQEIQVKAKRPKPHCFNCGSEEHQMKDCPMPRNAARISEKRKEYMDACGEANNQNFQQRYHAEEVEERFGRFKPGVISEELQDALGVTDKSLPPFIYRMRQLGYPPGWLKEAELENSGLALYDGKDGTDGETEVGEIQQNKSVTYDLSKLVNYPGFNISTPRGIPDEWRIFGSIPMQACQQKDVFANYLTSNFQAPGVKSGNKRSSSHSSPGSPKKQKNESNSAGSPADMELDSDMEVPHGSQSSESFQFQPPLPPDTPPLPRGTPPPVFTPPLPKGTPPLTPSDSPQTRTASGAVDEDALTLEELEEQQRRIWAALEQAESVNSDSDVPVDTPLTGNSVASSPCPNELDLPVPEGKTSEKQTLDEPEVPEIFTKKSEAGHASSPDSEVTSLCQKEKAELAPVNTEGALLDNGSVVPNCDISNGGSQKLFPADTSPSTATKIHSPIPDMSKFATGITPFEFENMAESTGMYLRIRSLLKNSPRNQQKNKKASE
Take B2: in test [2], the binding entry is “binds”.

B3: ARS2 (endogenous) (protein, UniProt Q9BXP5 1-876)
chain: T1 sequence
Regarding B3, the binding entry in test [3] and in test [2] was “binds” throughout.

Source of the values: publication doi:10.1101/2023.05.09.539743 (bioRxiv, 2023).
